{"source": "patent US8076285B2", "about": "(Aicuris GmbH & Co. KG, priority 2006, dated 2011)", "test": "general procedure: Fmoc solid-phase peptide synthesis; 2-chlorotrityl chloride resin (Iris Biotech), 0.85 mmol/g; TBTU/DIEA", "conditions": "trifluoroacetate"}
{"substance": "[(3R)-N^2-(Benzyloxycarbonyl)-3-amino-L-phenylalanyl]-[(3R)-3-hydroxy-L-leucyl]-L-leucyl-D-arginyl-L-isoleucyl-L-valyl-glycyl-L-seryl-L-serine C^1.9-N^3.1-lactam trifluoroacetate", "values": [{"measurement": "cyclisation yield", "setting": "cyclisation step, from 374A", "value": "62% of theory"}]}
{"substance": "[(3R)-N^2-(Benzyloxycarbonyl)-3-amino-L-phenylalanyl]-[(3R)-3-hydroxy-L-leucyl]-L-leucyl-D-arginyl-L-isoleucyl-L-valyl-glycyl-L-seryl-L-serine bistrifluoroacetate", "values": [{"measurement": "step yield", "setting": "late stage modification step", "value": "99% of theory"}]}
{"substance": "[(3R)-N^2-(Benzyloxycarbonyl)-3-amino-L-phenylalanyl]-[(3R)-3-hydroxy-L-leucyl]-L-leucyl-D-arginyl-L-leucyl-L-allothreonyl-glycyl-L-seryl-L-serine C^1.9-N^3.1-lactam trifluoroacetate", "values": [{"measurement": "cyclisation yield", "setting": "cyclisation step, from 365A", "value": "87% of theory"}, {"measurement": "final purity (method not given)", "setting": "cyclisation step", "value": 39, "unit": "% pure"}]}
{"substance": "[(3R)-N^2-(Benzyloxycarbonyl)-3-amino-L-phenylalanyl]-[(3R)-3-hydroxy-L-leucyl]-L-leucyl-D-arginyl-L-leucyl-L-allothreonyl-glycyl-L-seryl-L-serine bistrifluoroacetate", "values": [{"measurement": "crude purity (method not given)", "setting": "late stage modification step", "value": 70, "unit": "% pure"}]}
{"substance": "[(3R)-N^2-(Benzyloxycarbonyl)-3-amino-L-phenylalanyl]-[(3R)-3-hydroxy-L-leucyl]-L-leucyl-D-arginyl-L-phenylalanlyl-L-allothreonyl-glycyl-L-seryl-L-serine C^1.9-N^3.1-lactam trifluoroacetate", "values": [{"measurement": "cyclisation yield", "setting": "cyclisation step, from 368A", "value": "76% of theory"}]}
{"substance": "[(3R)-N^2-(Benzyloxycarbonyl)-3-amino-L-phenylalanyl]-[(3R)-3-hydroxy-L-leucyl]-L-leucyl-D-arginyl-L-phenylalanlyl-L-allothreonyl-glycyl-L-seryl-L-serine bistrifluoroacetate", "values": [{"measurement": "step yield", "setting": "late stage modification step", "value": "59% of theory"}]}
{"substance": "[(3R)-N^2-(Benzyloxycarbonyl)-3-amino-L-phenylalanyl]-[(3R)-3-hydroxy-L-leucyl]-L-leucyl-D-arginyl-L-valyl-L-allothreonyl-glycyl-L-seryl-L-serine C^1.9-N^3.1-lactam trifluoroacetate", "values": [{"measurement": "cyclisation yield", "setting": "cyclisation step, from 364A", "value": "91% of theory"}, {"measurement": "final purity (method not given)", "setting": "cyclisation step", "value": 41, "unit": "% pure"}]}
{"substance": "[(3R)-N^2-(Benzyloxycarbonyl)-3-amino-L-phenylalanyl]-[(3R)-3-hydroxy-L-leucyl]-L-leucyl-D-arginyl-L-valyl-L-allothreonyl-glycyl-L-seryl-L-serine bistrifluoroacetate", "values": [{"measurement": "crude purity (method not given)", "setting": "late stage modification step", "value": 70, "unit": "% pure"}]}
{"substance": "[(3R)-N^2-(Benzyloxycarbonyl)-3-amino-L-phenylalanyl]-[(3R)-3-hydroxy-L-leucyl]-L-leucyl-D-arginyl-[3-trimethylsilyl-L-alanlyl]-L-allothreonyl-glycyl-L-seryl-L-serine C^1.9-N^3.1-lactam trifluoroacetate", "values": [{"measurement": "cyclisation yield", "setting": "cyclisation step, from 366A", "value": "51% of theory"}, {"measurement": "final purity (method not given)", "setting": "cyclisation step", "value": 42, "unit": "% pure"}]}
{"substance": "[(3R)-N^2-(Benzyloxycarbonyl)-3-amino-L-phenylalanyl]-[(3R)-3-hydroxy-L-leucyl]-L-norvalyl-D-arginyl-L-isoleucyl-L-allothreonyl-glycyl-L-seryl-L-serine C^1.9-N^3.1-lactam trifluoroacetate", "values": [{"measurement": "cyclisation yield", "setting": "cyclisation step, from 371A", "value": "77% of theory"}]}
{"substance": "[(3R)-N^2-(Benzyloxycarbonyl)-3-amino-L-phenylalanyl]-[(3R)-3-hydroxy-L-leucyl]-[3-tertbutyl-L-alanyl]-D-arginyl-L-isoleucyl-L-allothreonyl-glycyl-L-seryl-L-serine bistrifluoroacetate", "values": [{"measurement": "step yield", "setting": "late stage modification step", "value": "99% of theory"}]}
{"substance": "[(3R)-N^2-(Benzyloxycarbonyl)-3-{(tert-butoxycarbonyl)amino}-3-(pyridin-3-yl)-L-alanyl]-[(3R)-3-hydroxy-L-leucyl]-L-leucyl-D-arginyl-L-isoleucyl-L-allothreonyl-glycyl-[(3R)-3-hydroxy-L-asparaginyl]-L-serine bistrifluoroacetate", "values": [{"measurement": "step yield", "setting": "coupling step", "value": "49% of theory"}]}
{"substance": "[(3R)-N^2-(Benzyloxycarbonyl)-3-{(tert-butoxycarbonyl)amino}-L-leucyl]-[(3R)-3-hydroxy-L-leucyl]-L-leucyl-D-arginyl-L-isoleucyl-L-allothreonyl-glycyl-[(3R)-3-hydroxy-L-asparaginyl]-L-serine trifluoroacetate", "values": [{"measurement": "step yield", "setting": "coupling step", "value": "94% of theory"}]}
{"substance": "[(3R)-N^2-(Benzyloxycarbonyl)-3-{(tert-butoxycarbonyl)amino}-L-phenylalanyl]-L-threonyl-L-leucyl-D-arginyl-l-isoleucyl-L-allothreonyl-glycyl-L-seryl-L-serine trifluoroacetate", "values": [{"measurement": "step yield", "setting": "coupling step", "value": "64% of theory"}]}
{"substance": "[(3R)-N^2-(Benzyloxycarbonyl)-3-{(tert-butoxycarbonyl)amino}-L-phenylalanyl]-[(3R)-3-hydroxy-L-leucyl]-(3-trimethylsilyl-L-alanyl)-D-arginyl-L-isoleucyl-L-allothreonyl-glycyl-L-seryl-L-serine trifluoroacetate", "values": [{"measurement": "step yield", "setting": "coupling step", "value": "85% of theory"}]}
{"substance": "[(3R)-N^2-(Benzyloxycarbonyl)-3-{(tert-butoxycarbonyl)amino}-L-phenylalanyl]-[(3R)-3-hydroxy-L-leucyl]-L-isoleucyl-D-arginyl-L-isoleucyl-L-allothreonyl-glycyl-L-seryl-L-serine trifluoroacetate", "values": [{"measurement": "step yield", "setting": "coupling step", "value": "18% of theory"}]}
{"substance": "[(3R)-N^2-(Benzyloxycarbonyl)-3-{(tert-butoxycarbonyl)amino}-L-phenylalanyl]-[(3R)-3-hydroxy-L-leucyl]-L-leucyl-D-arginyl-L-isoleucyl-L valyl-glycyl-L-seryl-L-serine trifluoroacetate", "values": [{"measurement": "step yield", "setting": "coupling step", "value": "24% of theory"}]}
{"substance": "[(3R)-N^2-(Benzyloxycarbonyl)-3-{(tert-butoxycarbonyl)amino}-L-phenylalanyl]-[(3R)-3-hydroxy-L-leucyl]-L-leucyl-D-arginyl-L-isoleucyl-L-allothreonyl-D-alanyl-[(3S)-3-hydroxy-L-asparaginyl]-L-serine trifluoroacetate", "values": [{"measurement": "step yield", "setting": "coupling step", "value": "31% of theory"}]}
{"substance": "[(3R)-N^2-(Benzyloxycarbonyl)-3-{(tert-butoxycarbonyl)amino}-L-phenylalanyl]-[(3R)-3-hydroxy-L-leucyl]-L-leucyl-D-arginyl-L-isoleucyl-L-allothreonyl-D-seryl-L-seryl-L-serine trifluoroacetate", "values": [{"measurement": "step yield", "setting": "coupling step", "value": "29% of theory"}]}
{"substance": "[(3R)-N^2-(Benzyloxycarbonyl)-3-{(tert-butoxycarbonyl)amino}-L-phenylalanyl]-[(3R)-3-hydroxy-L-leucyl]-L-leucyl-D-arginyl-L-isoleucyl-L-allothreonyl-glycyl-L-alanyl-L-serine trifluoroacetate", "values": [{"measurement": "step yield", "setting": "coupling step", "value": "67% of theory"}]}
{"substance": "[(3R)-N^2-(Benzyloxycarbonyl)-3-{(tert-butoxycarbonyl)amino}-L-phenylalanyl]-[(3R)-3-hydroxy-L-leucyl]-L-leucyl-D-arginyl-L-isoleucyl-L-allothreonyl-glycyl-L-seryl-L-serine trifluoroacetate", "values": [{"measurement": "step yield", "setting": "coupling step", "value": "59% of theory"}]}
{"substance": "[(3R)-N^2-(Benzyloxycarbonyl)-3-{(tert-butoxycarbonyl)amino}-L-phenylalanyl]-[(3R)-3-hydroxy-L-leucyl]-L-leucyl-D-arginyl-L-isoleucyl-L-allothreonyl-glycyl-L-threonyl-L-serine trifluoroacetate", "values": [{"measurement": "step yield", "setting": "coupling step", "value": "76% of theory"}]}
{"substance": "[(3R)-N^2-(Benzyloxycarbonyl)-3-{(tert-butoxycarbonyl)amino}-L-phenylalanyl]-[(3R)-3-hydroxy-L-leucyl]-L-leucyl-D-arginyl-L-isoleucyl-L-allothreonyl-glycyl-[3-(3-pyridyl)-L-alanyl]-L-serine trifluoroacetate", "values": [{"measurement": "step yield", "setting": "coupling step", "value": "73% of theory"}]}
{"substance": "[(3R)-N^2-(Benzyloxycarbonyl)-3-{(tert-butoxycarbonyl)amino}-L-phenylalanyl]-[(3R)-3-hydroxy-L-leucyl]-L-leucyl-D-arginyl-L-isoleucyl-L-allothreonyl-glycyl-[(3S)-3-hydroxy-L-asparaginyl]-L-alanine trifluoroacetate", "values": [{"measurement": "step yield", "setting": "coupling step", "value": "34% of theory"}]}
{"substance": "[(3R)-N^2-(Benzyloxycarbonyl)-3-{(tert-butoxycarbonyl)amino}-L-phenylalanyl]-[(3R)-3-hydroxy-L-leucyl]-L-leucyl-D-arginyl-L-isoleucyl-L-allothreonyl-glycyl-glycyl-L-serine trifluoroacetate", "values": [{"measurement": "final purity (method not given)", "setting": "coupling step", "value": 60, "unit": "% pure"}, {"measurement": "step yield", "setting": "coupling step", "value": "84% of theory"}]}
{"substance": "[(3R)-N^2-(Benzyloxycarbonyl)-3-{(tert-butoxycarbonyl)amino}-L-phenylalanyl]-[(3R)-3-hydroxy-L-leucyl]-L-leucyl-D-arginyl-L-isoleucyl-L-leucyl-glycyl-L-seryl-L-serine trifluoroacetate", "values": [{"measurement": "step yield", "setting": "coupling step", "value": "14% of theory"}]}
{"substance": "[(3R)-N^2-(Benzyloxycarbonyl)-3-{(tert-butoxycarbonyl)amino}-L-phenylalanyl]-[(3R)-3-hydroxy-L-leucyl]-L-leucyl-D-arginyl-L-isoleucyl-L-seryl-glycyl-L-seryl-L-serine trifluoroacetate", "values": [{"measurement": "step yield", "setting": "coupling step", "value": "30% of theory"}]}
{"substance": "[(3R)-N^2-(Benzyloxycarbonyl)-3-{(tert-butoxycarbonyl)amino}-L-phenylalanyl]-[(3R)-3-hydroxy-L-leucyl]-L-leucyl-D-arginyl-L-isoleucyl-L-seryl-glycyl-[(3S)-3-hydroxy-L-asparaginyl]-L-serinate trifluoroacetate", "values": [{"measurement": "step yield", "setting": "coupling step", "value": "80% of theory"}]}
{"substance": "[(3R)-N^2-(Benzyloxycarbonyl)-3-{(tert-butoxycarbonyl)amino}-L-phenylalanyl]-[(3R)-3-hydroxy-L-leucyl]-L-leucyl-D-arginyl-L-leucyl-L-allothreonyl-glycyl-L-seryl-L-serine trifluoroacetate", "values": [{"measurement": "step yield", "setting": "coupling step", "value": "43% of theory"}]}
{"substance": "[(3R)-N^2-(Benzyloxycarbonyl)-3-{(tert-butoxycarbonyl)amino}-L-phenylalanyl]-[(3R)-3-hydroxy-L-leucyl]-L-leucyl-D-arginyl-L-phenylalanlyl-L-allothreonyl-glycyl-L-seryl-L-serine trifluoroacetate", "values": [{"measurement": "step yield", "setting": "coupling step", "value": "49% of theory"}]}
